Assay results: patent US20110104194A1 (NEW YORK UNIVERSITY, published 2011)
Results are given in words; binding and its absence hold for the method and conditions named. Some entries that bind do so weakly or less than the wild type. Tags and fused reporters may be left off the sequences shown.

Protein sequences, listed by entry. Tags and fused reporters are not part of them. Lines headed by an entry give the natural chain unless they say otherwise; changes in a name come on top.
UniProt P25391: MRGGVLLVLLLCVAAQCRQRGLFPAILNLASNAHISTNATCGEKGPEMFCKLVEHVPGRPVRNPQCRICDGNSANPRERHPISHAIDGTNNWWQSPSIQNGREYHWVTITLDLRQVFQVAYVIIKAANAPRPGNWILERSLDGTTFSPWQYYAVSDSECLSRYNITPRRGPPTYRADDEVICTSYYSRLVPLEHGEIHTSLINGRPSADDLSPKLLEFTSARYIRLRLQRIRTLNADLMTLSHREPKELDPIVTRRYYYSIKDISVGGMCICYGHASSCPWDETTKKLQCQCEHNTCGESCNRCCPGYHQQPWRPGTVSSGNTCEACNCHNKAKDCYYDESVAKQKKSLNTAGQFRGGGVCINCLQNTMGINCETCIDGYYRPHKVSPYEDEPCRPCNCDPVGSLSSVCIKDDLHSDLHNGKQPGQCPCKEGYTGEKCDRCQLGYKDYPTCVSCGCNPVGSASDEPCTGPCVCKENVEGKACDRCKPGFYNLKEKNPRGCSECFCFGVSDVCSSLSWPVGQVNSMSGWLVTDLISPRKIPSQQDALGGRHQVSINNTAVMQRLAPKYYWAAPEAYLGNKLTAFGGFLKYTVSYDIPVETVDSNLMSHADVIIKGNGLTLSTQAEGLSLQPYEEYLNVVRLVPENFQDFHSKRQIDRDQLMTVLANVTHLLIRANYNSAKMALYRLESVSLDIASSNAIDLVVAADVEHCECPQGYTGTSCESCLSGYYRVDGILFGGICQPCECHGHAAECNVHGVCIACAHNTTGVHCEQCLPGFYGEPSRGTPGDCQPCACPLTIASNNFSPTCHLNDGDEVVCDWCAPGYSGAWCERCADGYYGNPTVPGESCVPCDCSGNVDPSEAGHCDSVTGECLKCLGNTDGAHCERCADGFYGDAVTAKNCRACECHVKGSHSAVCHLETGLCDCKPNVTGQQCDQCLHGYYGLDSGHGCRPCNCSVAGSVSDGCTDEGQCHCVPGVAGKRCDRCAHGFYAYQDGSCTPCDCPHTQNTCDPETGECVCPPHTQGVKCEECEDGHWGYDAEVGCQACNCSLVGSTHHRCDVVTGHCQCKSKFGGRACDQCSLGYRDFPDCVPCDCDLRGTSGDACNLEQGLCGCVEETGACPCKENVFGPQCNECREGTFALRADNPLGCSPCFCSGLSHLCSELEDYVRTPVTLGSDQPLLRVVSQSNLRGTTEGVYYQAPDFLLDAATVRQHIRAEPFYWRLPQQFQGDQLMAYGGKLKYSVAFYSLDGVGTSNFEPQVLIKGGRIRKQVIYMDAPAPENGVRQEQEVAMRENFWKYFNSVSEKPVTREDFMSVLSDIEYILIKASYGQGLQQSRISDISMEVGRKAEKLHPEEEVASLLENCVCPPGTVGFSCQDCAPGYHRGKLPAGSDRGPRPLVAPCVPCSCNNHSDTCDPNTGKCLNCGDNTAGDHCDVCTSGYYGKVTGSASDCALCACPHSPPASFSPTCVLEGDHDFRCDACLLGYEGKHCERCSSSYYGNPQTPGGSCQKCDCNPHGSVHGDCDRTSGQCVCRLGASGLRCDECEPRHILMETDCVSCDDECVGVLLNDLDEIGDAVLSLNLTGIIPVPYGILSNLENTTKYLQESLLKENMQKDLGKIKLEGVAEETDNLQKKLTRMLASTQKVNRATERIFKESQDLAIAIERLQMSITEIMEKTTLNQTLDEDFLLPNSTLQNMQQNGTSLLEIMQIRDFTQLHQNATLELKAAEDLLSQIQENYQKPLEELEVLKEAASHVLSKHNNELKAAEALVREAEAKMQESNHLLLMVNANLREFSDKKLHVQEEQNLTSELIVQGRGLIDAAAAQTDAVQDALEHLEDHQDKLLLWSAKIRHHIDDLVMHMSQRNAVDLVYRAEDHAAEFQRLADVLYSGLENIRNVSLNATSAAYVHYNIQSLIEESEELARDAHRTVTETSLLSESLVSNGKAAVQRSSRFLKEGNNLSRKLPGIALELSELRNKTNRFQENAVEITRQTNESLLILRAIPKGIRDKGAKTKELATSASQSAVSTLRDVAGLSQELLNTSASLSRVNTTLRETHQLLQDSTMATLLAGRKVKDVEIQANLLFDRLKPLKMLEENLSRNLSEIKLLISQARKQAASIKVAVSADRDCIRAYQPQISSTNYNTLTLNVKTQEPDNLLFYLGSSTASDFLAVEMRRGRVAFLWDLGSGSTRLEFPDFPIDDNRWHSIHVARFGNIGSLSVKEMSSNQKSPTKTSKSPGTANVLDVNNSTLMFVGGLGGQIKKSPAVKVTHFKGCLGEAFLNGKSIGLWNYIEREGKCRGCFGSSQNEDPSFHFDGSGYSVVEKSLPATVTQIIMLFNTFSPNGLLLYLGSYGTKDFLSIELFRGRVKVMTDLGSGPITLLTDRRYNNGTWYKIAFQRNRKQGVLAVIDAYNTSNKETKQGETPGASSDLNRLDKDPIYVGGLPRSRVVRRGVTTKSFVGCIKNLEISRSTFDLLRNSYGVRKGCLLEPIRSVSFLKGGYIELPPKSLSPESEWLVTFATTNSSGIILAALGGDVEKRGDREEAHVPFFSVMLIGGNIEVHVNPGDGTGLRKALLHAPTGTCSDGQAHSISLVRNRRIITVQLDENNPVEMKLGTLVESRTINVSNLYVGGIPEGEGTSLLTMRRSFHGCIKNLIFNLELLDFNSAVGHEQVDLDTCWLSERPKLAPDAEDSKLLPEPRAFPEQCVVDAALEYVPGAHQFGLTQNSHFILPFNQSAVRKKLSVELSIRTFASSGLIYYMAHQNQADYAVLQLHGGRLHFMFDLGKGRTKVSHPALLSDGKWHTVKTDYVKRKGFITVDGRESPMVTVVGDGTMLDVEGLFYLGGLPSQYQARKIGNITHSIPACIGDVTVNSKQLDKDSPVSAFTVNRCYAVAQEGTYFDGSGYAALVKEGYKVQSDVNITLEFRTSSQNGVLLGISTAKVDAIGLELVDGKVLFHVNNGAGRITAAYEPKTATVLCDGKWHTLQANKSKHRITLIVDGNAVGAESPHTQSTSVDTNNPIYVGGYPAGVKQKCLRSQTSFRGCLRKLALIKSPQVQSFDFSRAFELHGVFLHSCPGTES

Columns and labels:
[1] = target: Laminin-1 (human placenta) (human) (UniProt P25391); test: western blot overlay and ELISA (FIG. 8)
[2] = target: Laminin-1 (human placenta) (human) (UniProt P25391); test: western blot overlay and ELISA (discussion of the examples)
[3] = target: Laminin-1 (human placenta) (human) (UniProt P25391); test: ELISA: rPTRP coated at 5-20 µg/ml, laminin 0.5 µg/ml, anti-ECM antibody
[4] = target: Laminin-1 (human placenta) (human) (UniProt P25391); test: western blot overlay: rPTRP on the blot, ECM protein 5 µg/ml, anti-ECM antibody

Measured: binding

B1: purified recombinant PTRP (rPTRP), GST tag cleaved (other)
chain: MDVALGVAVTDRVARLALVDSAAPGTVIDQFVLDVAEHPVEVLTETVVGTDRSLAGENHRLVATRLCWPDQAKADELQHALQDSGVHDVAVISEAQAATALVGAAHAGSAVLLVGDETATLSVVGDPDAPPTMVAVAPVAGADATSTVDTLMARLGDQALAPGDVFLVGRSAEHTTVLADQLRAASTMRVQTPDDPTFALARGAAMAAGAATMAHPALVADATTSLPRAEAGQSGSEGEQLAYSQASDYELLPVDEYEEHDEYGAAADRSAPLSRRSLLIGNAVVAFAVIGFASLAVAVAVTIRPTAASKPVEGHQNAQPGKFMPLLPTQQQAPVPPPPPDDPTAGFQGGTIPAVQNVVPRPGTSPGVGGTPASPAPEAPAVPGVVPAPVPIPVPIIIPPFPGWQPGMPTIPTAPPTTPVTTSATTPPTTPPTTPVTTPPTTPPTTPVTTPPTTPPTTPVTTPPTTVAPTTVAPTTVAPTTVAPTTVAPATATPTTVAPQPTQQPTQQPTQQMPTQQQTVAPQTVAPAPQPPSGGRNGSGGGDLFGGF
notes: also called Proline-Threonine Repetitive Protein; Rv0538
binds: [1] | [2] | [3] | [4]
